Assay results published in the supplement of paper PMC12823440, “Inhibitors supercharge kinase turnover through native proteolytic circuits” (Nature, 2025).
Structures can show the parent of a compound that is named as a salt. The list shows a part of the results. Hit calls seldom repeat between salt and free forms of one compound.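 In K562 cells expressing nanoluciferase-fused kinases, luminescence was recorded at 4 h intervals between 2 and 18 h, normalized as percent of control with DMSO at 100% and a positive control at 0%. A significant (2 sigma) signal drop marks a time point as decreased. The authors' rule for a hit is not shown and takes in more than the number of time points.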

Amino acid sequences for entries named in this document (tags omitted). A change or cut given only in a name is not applied to a line headed by its entry.
UniProt P31749: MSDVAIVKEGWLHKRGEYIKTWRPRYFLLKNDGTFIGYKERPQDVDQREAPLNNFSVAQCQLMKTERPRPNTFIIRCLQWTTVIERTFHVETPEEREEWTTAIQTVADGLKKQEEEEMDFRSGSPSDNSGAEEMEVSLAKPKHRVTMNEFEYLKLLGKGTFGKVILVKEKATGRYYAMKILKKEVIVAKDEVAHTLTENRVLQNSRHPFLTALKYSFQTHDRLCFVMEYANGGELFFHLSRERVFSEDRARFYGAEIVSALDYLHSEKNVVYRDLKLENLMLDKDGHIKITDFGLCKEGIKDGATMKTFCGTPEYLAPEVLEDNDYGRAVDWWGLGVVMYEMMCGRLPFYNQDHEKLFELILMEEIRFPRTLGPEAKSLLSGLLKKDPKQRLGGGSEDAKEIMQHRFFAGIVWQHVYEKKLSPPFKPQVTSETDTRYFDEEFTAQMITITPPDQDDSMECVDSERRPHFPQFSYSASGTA
UniProt O14965: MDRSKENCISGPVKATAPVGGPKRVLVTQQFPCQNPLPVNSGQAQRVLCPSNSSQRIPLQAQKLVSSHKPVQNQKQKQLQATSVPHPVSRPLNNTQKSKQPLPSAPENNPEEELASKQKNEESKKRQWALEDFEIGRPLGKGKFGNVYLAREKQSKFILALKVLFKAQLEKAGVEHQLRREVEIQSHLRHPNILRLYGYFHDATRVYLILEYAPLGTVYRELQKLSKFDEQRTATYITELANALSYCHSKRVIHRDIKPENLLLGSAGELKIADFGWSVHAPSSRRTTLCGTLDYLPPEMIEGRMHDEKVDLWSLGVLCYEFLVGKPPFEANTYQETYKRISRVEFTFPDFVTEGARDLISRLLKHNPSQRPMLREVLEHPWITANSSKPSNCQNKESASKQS
UniProt Q96GD4, whole entry: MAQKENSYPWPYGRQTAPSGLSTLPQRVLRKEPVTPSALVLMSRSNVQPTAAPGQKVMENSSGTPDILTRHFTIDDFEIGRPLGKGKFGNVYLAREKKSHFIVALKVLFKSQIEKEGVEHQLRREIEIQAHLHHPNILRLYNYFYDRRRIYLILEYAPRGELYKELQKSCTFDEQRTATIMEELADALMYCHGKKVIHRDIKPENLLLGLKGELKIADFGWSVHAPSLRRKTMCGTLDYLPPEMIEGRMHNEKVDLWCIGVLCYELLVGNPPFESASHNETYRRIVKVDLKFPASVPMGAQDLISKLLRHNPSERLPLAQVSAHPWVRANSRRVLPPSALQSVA
UniProt Q9UQB9: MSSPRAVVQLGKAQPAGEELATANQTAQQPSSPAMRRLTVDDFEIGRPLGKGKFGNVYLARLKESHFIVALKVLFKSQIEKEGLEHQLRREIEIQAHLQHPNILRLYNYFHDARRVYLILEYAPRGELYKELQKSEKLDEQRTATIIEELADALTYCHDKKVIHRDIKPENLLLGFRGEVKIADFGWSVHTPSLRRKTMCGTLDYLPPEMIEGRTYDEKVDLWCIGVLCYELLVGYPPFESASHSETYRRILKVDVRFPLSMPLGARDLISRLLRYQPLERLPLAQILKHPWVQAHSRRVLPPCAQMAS
UniProt P51451: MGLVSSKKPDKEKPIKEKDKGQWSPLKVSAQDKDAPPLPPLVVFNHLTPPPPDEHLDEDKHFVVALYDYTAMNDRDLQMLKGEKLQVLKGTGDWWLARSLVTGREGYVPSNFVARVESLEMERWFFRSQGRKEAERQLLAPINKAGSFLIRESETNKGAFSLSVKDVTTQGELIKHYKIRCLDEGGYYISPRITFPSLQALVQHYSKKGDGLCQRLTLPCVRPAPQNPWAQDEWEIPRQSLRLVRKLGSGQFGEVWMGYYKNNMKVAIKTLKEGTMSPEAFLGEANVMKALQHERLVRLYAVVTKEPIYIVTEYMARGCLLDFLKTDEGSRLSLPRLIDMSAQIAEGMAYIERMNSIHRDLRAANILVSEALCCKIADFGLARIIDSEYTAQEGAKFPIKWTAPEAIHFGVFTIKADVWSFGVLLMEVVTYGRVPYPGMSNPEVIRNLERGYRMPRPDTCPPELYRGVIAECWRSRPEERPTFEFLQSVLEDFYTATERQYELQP
UniProt P51813: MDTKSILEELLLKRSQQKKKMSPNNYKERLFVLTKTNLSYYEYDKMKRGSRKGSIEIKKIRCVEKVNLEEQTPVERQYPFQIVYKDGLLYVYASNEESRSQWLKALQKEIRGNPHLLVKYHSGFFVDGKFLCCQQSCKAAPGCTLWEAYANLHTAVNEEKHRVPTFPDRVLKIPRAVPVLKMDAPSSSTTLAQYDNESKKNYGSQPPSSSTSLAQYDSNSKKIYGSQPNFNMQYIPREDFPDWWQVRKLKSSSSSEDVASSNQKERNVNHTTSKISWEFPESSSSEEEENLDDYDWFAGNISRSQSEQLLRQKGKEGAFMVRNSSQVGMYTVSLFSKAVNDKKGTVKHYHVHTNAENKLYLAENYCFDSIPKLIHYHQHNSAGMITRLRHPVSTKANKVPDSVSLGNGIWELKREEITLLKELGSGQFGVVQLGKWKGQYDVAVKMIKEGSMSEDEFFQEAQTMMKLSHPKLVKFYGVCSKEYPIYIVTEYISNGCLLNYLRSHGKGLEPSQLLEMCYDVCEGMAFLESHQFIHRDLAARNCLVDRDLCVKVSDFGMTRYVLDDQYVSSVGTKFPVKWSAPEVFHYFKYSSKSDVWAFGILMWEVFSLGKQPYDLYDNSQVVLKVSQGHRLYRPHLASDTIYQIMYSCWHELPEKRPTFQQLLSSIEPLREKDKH
UniProt P15056, whole entry, looked up: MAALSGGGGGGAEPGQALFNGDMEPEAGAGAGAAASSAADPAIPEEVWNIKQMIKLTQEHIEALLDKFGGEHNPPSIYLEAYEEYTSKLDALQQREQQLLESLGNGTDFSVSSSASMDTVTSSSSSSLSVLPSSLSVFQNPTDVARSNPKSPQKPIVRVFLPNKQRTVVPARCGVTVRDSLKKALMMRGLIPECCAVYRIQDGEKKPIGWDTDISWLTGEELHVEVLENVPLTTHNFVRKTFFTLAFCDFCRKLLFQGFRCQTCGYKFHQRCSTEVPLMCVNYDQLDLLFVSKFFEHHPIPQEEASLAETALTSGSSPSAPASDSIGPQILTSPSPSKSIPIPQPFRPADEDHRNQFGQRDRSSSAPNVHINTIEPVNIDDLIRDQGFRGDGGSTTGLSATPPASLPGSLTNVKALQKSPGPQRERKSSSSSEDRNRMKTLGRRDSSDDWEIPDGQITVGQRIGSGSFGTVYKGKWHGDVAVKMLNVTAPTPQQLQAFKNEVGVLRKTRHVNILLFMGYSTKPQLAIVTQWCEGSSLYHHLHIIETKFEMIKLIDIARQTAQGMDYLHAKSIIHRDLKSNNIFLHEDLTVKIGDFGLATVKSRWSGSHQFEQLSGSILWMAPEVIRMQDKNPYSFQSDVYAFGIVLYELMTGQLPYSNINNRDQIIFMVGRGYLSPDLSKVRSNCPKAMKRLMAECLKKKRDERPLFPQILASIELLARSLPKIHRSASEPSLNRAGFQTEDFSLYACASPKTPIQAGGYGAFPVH
UniProt Q06187: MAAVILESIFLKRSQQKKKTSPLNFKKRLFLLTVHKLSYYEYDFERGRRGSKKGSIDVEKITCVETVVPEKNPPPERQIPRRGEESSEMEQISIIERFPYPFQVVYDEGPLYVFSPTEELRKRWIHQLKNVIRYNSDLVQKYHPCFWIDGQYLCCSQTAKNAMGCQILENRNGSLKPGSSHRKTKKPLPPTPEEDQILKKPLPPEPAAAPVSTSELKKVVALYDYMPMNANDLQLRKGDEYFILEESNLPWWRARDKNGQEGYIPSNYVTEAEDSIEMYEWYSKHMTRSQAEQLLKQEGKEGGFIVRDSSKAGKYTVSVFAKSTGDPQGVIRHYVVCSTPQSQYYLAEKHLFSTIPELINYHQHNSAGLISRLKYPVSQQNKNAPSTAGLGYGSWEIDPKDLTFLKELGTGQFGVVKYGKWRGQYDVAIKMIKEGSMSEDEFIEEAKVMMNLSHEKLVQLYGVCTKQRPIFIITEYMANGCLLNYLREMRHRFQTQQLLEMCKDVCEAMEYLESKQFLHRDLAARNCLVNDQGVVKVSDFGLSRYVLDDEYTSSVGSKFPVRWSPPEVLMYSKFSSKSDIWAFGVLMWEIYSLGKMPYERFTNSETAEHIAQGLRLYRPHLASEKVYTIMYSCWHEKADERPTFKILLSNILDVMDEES
UniProt Q9UQM7, whole entry: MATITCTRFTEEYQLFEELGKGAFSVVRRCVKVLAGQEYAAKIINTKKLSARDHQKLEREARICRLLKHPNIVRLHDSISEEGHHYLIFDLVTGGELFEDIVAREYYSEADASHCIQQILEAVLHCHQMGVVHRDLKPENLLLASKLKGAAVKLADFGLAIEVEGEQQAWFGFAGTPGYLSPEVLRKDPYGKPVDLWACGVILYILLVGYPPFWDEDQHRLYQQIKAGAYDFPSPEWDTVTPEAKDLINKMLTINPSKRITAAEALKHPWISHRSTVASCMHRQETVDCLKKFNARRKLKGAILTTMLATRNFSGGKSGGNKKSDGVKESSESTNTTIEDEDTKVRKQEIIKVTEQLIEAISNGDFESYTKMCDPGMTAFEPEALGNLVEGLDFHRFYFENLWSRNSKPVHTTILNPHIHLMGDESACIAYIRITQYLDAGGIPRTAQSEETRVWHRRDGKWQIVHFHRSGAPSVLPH
UniProt Q13555: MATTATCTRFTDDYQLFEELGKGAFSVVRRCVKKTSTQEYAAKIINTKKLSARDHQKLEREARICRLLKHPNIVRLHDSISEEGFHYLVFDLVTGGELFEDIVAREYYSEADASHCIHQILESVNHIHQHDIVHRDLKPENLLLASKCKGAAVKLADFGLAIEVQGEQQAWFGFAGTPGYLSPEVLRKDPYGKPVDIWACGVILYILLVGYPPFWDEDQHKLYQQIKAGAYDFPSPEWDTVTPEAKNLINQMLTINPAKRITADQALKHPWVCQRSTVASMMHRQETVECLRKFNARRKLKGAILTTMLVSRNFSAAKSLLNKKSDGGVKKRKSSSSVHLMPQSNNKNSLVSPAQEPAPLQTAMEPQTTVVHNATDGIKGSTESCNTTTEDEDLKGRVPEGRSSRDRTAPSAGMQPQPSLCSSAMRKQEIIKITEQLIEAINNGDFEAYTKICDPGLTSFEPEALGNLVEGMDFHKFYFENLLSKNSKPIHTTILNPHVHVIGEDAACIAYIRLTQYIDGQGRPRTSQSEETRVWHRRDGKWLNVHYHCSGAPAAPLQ
UniProt Q15131: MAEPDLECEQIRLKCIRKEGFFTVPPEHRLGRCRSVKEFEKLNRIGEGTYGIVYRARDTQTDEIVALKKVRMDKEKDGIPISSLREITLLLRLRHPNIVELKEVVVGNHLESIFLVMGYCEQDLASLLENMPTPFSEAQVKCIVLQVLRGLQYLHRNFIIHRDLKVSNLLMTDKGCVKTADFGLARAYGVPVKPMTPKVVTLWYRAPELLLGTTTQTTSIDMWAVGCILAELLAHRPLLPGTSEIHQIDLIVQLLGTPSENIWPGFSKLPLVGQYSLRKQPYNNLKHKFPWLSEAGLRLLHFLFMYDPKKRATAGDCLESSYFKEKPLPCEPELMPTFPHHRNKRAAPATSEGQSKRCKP
UniProt P11802: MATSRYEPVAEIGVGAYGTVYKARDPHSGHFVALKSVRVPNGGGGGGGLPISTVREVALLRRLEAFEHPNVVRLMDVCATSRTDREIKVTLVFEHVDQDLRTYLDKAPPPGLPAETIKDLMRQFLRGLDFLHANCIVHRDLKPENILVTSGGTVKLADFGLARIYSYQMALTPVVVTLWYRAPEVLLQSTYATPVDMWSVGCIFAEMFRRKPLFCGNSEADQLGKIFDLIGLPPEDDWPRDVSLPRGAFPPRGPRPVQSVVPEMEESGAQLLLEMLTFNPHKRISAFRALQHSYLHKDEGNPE
UniProt Q00535, whole entry, looked up: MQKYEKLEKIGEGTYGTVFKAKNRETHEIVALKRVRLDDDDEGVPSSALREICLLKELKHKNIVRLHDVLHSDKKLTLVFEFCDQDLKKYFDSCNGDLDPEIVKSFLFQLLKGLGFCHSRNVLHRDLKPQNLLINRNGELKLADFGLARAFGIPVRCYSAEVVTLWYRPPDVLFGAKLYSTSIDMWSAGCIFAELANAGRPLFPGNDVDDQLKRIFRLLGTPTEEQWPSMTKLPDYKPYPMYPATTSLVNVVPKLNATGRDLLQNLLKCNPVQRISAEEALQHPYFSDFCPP
UniProt Q00534, whole entry: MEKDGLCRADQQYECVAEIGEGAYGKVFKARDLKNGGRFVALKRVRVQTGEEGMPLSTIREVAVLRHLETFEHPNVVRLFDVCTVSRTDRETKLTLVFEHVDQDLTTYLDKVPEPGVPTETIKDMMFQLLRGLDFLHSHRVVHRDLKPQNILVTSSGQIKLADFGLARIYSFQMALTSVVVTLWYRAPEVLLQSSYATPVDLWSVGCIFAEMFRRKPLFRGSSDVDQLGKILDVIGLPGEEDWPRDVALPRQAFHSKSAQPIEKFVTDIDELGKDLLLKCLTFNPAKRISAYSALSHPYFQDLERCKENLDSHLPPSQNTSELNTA

Key:
Experiment in all cases: kinase-Nluc reporter destabilization hit call (1 = scored as downregulated) (binary); higher = compound decreases kinase abundance
Settings in all cases: K562; 2-18 h
[1] = molecular target: ABL1 (UniProt P00519)
[2] = molecular target: AKT1 (UniProt P31749)
[3] = molecular target: ALK (UniProt Q9UM73)
[4] = molecular target: ARAF (UniProt P10398)
[5] = molecular target: AURKA (UniProt O14965)
[6] = molecular target: AURKB (UniProt Q96GD4)
[7] = molecular target: AURKC (UniProt Q9UQB9)
[8] = molecular target: BLK (UniProt P51451)
[9] = molecular target: BMX (UniProt P51813)
[10] = molecular target: BRAF (UniProt P15056)
[11] = test system: BRAF_V600E
[12] = molecular target: BTK (UniProt Q06187)
[13] = molecular target: CAMK2A (UniProt Q9UQM7)
[14] = molecular target: CAMK2G (UniProt Q13555)
[15] = molecular target: CDK10 (UniProt Q15131)
[16] = molecular target: CDK2 (UniProt P24941)
[17] = molecular target: CDK3 (UniProt Q00526)
[18] = molecular target: CDK4 (UniProt P11802)
[19] = molecular target: CDK5 (UniProt Q00535)
[20] = molecular target: CDK6 (UniProt Q00534)

Measured: kinase-Nluc reporter destabilization hit call

CCOc1c([C@H](C)n2nc(C)c3c(N)ncnc32)cc(Cl)c(F)c1[C@@H]1CNC(=O)C1 [Parsaclisib (hydrochloride)] (10 µM)
inactive: [1] 0 | [2] 0 | [3] 0 | [4] 0 | [5] 0 | [6] 0 | [7] 0 | [8] 0 | [9] 0 | [10] 0 | [11] 0 | [12] 0 | [13] 0 | [14] 0 | [15] 0 | [16] 0 | [17] 0 | [18] 0 | [19] 0 | [20] 0

c1cc(-c2cnn3cc(-c4ccc(N5CCNCC5)cc4)cnc23)c2cccnc2c1 (2.5 µM)
inactive: [1] 0 | [2] 0 | [3] 0 | [4] 0 | [5] 0 | [6] 0 | [7] 0 | [8] 0 | [9] 0 | [10] 0 | [11] 0 | [12] 0 | [13] 0 | [14] 0 | [15] 0 | [16] 0 | [17] 0 | [18] 0 | [19] 0 | [20] 0

Cc1ccc(-c2ccc3c(ccc4sc5c(c43)NC[C@@H](C)NC5=O)n2)cn1 (10 µM)
inactive: [1] 0 | [2] 0 | [3] 0 | [4] 0 | [5] 0 | [6] 0 | [7] 0 | [8] 0 | [9] 0 | [10] 0 | [11] 0 | [12] 0 | [13] 0 | [14] 0 | [15] 0 | [16] 0 | [17] 0 | [18] 0 | [19] 0 | [20] 0

CNC(=O)c1cc(Oc2ccc3nc(N[C@@H]4CCCC[C@H]4O)sc3c2)ccn1 (10 µM)
inactive: [1] 0 | [2] 0 | [3] 0 | [4] 0 | [5] 0 | [6] 0 | [7] 0 | [8] 0 | [9] 0 | [10] 0 | [11] 0 | [12] 0 | [13] 0 | [14] 0 | [15] 0 | [16] 0 | [17] 0 | [18] 0 | [19] 0 | [20] 0

COc1ccc2c(c1)c(C1=C(c3c[nH]c4ccccc34)C(=O)NC1=O)cn2CCCN(C)C (10 µM)
inactive: [1] 0 | [2] 0 | [3] 0 | [4] 0 | [5] 0 | [6] 0 | [7] 0 | [8] 0 | [9] 0 | [10] 0 | [11] 0 | [12] 0 | [13] 0 | [14] 0 | [15] 0 | [16] 0 | [17] 0 | [18] 0 | [19] 0 | [20] 0

COc1ccc2c(Oc3ccc(NC(=O)c4c(C)n(CC(C)(C)O)n(-c5ccccc5)c4=O)cc3F)ccnc2c1 (2.5 µM)
inactive: [1] 0 | [2] 0 | [3] 0 | [4] 0 | [5] 0 | [6] 0 | [7] 0 | [8] 0 | [9] 0 | [10] 0 | [11] 0 | [12] 0 | [13] 0 | [14] 0 | [15] 0 | [16] 0 | [17] 0 | [18] 0 | [19] 0 | [20] 0

COc1ccc(CNc2nc(N(CCO)CCO)nc3c2ncn3C(C)C)cc1 (2.5 µM)
inactive: [1] 0 | [2] 0 | [3] 0 | [4] 0 | [5] 0 | [6] 0 | [7] 0 | [8] 0 | [9] 0 | [10] 0 | [11] 0 | [12] 0 | [13] 0 | [14] 0 | [15] 0 | [16] 0 | [17] 0 | [18] 0 | [19] 0 | [20] 0

Cn1cc(-c2ccc3nnc(C(F)(F)c4ccc5ncccc5c4)n3n2)cn1 (10 µM)
inactive: [1] 0 | [2] 0 | [3] 0 | [4] 0 | [5] 0 | [6] 0 | [7] 0 | [8] 0 | [9] 0 | [10] 0 | [11] 0 | [12] 0 | [13] 0 | [14] 0 | [15] 0 | [16] 0 | [17] 0 | [18] 0 | [19] 0 | [20] 0

CC(C)(C)Cn1c(N)nc2ccc(-c3[nH]c(C(C)(C)C)nc3-c3ccc(F)cc3)nc21 [Ralimetinib dimesylate] (2.5 µM)
inactive: [1] 0 | [2] 0 | [3] 0 | [4] 0 | [5] 0 | [6] 0 | [7] 0 | [8] 0 | [9] 0 | [10] 0 | [11] 0 | [12] 0 | [13] 0 | [14] 0 | [15] 0 | [16] 0 | [17] 0 | [18] 0 | [19] 0 | [20] 0

CC1(N)CCN(c2cnc3c(-c4cccc(Cl)c4Cl)[nH]nc3n2)CC1 (2.5 µM)
inactive: [1] 0 | [2] 0 | [3] 0 | [4] 0 | [5] 0 | [6] 0 | [7] 0 | [8] 0 | [9] 0 | [10] 0 | [11] 0 | [12] 0 | [13] 0 | [14] 0 | [15] 0 | [16] 0 | [17] 0 | [18] 0 | [19] 0 | [20] 0

C=CC(=O)Nc1cccc(Oc2nc(Nc3ccc(N4CCN(C)CC4)cc3)nc3ccoc23)c1 [Poseltinib] (10 µM)
inactive: [1] 0 | [2] 0 | [3] 0 | [4] 0 | [5] 0 | [6] 0 | [7] 0 | [8] 0 | [9] 0 | [10] 0 | [11] 0 | [12] 0 | [13] 0 | [14] 0 | [15] 0 | [16] 0 | [17] 0 | [18] 0 | [19] 0 | [20] 0

Retrieved by structure from the list above, 2 records:
Cc1ccc(-c2ccc3c(ccc4sc5c(c43)NC[C@@H](C)NC5=O)n2)cn1 (10 µM)
inactive: [1] 0 | [2] 0 | [3] 0 | [4] 0 | [5] 0 | [6] 0 | [7] 0 | [8] 0 | [9] 0 | [10] 0 | [11] 0 | [12] 0 | [13] 0 | [14] 0 | [15] 0 | [16] 0 | [17] 0 | [18] 0 | [19] 0 | [20] 0

CCOc1c([C@H](C)n2nc(C)c3c(N)ncnc32)cc(Cl)c(F)c1[C@@H]1CNC(=O)C1 [Parsaclisib (hydrochloride)] (10 µM)
inactive: [1] 0 | [2] 0 | [3] 0 | [4] 0 | [5] 0 | [6] 0 | [7] 0 | [8] 0 | [9] 0 | [10] 0 | [11] 0 | [12] 0 | [13] 0 | [14] 0 | [15] 0 | [16] 0 | [17] 0 | [18] 0 | [19] 0 | [20] 0

Remaining list, next part

CC1=C(C(=O)Nc2ccc3[nH]ncc3c2)C(c2ccc(F)cc2)NC(=O)N1 (stereo not given) (10 µM)
inactive: [1] 0 | [2] 0 | [3] 0 | [4] 0 | [5] 0 | [6] 0 | [7] 0 | [8] 0 | [9] 0 | [10] 0 | [11] 0 | [12] 0 | [13] 0 | [14] 0 | [15] 0 | [16] 0 | [17] 0 | [18] 0 | [19] 0 | [20] 0

CC[C@H](C)[C@H](NC(=O)[C@H](CCC(=O)O)NC(=O)[C@H](CCCN=C(N)N)NC(=O)[C@H](CCCN=C(N)N)NC(=O)[C@@H](N)CCCCN)C(=O)N[C@@H](CC(C)C)C(=O)N[C@@H](CO)C(=O)N[C@@H](CCCN=C(N)N)C(=O)N[C@@H](CCCN=C(N)N)C(=O)N1CCC[C@H]1C(=O)N[C@@H](CO)C(=O)N[C@@H](Cc1ccc(O)cc1)C(=O)N[C@@H](CCCN=C(N)N)C(=O)O [CREBtide] (10 µM)
inactive: [1] 0 | [2] 0 | [3] 0 | [4] 0 | [5] 0 | [6] 0 | [7] 0 | [8] 0 | [9] 0 | [10] 0 | [11] 0 | [12] 0 | [13] 0 | [14] 0 | [15] 0 | [16] 0 | [17] 0 | [18] 0 | [19] 0 | [20] 0

CC[C@@H]1[C@H](F)C(=O)N[C@@H]1COc1nccc2cc(C(N)=O)c(OC)cc12 (10 µM)
inactive: [1] 0 | [2] 0 | [3] 0 | [4] 0 | [5] 0 | [6] 0 | [7] 0 | [8] 0 | [9] 0 | [10] 0 | [11] 0 | [12] 0 | [13] 0 | [14] 0 | [15] 0 | [16] 0 | [17] 0 | [18] 0 | [19] 0 | [20] 0

N#C/C(=C(/N)Sc1ccc(N)cc1)c1ccccc1C(F)(F)F (10 µM)
inactive: [1] 0 | [2] 0 | [3] 0 | [4] 0 | [5] 0 | [6] 0 | [7] 0 | [8] 0 | [9] 0 | [10] 0 | [11] 0 | [12] 0 | [13] 0 | [14] 0 | [15] 0 | [16] 0 | [17] 0 | [18] 0 | [19] 0 | [20] 0

O=[N+]([O-])c1ccc(Sc2cccc[n+]2[O-])c2nonc12 (2.5 µM)
inactive: [1] 0 | [2] 0 | [3] 0 | [4] 0 | [5] 0 | [6] 0 | [7] 0 | [8] 0 | [9] 0 | [10] 0 | [11] 0 | [12] 0 | [13] 0 | [14] 0 | [15] 0 | [16] 0 | [17] 0 | [18] 0 | [19] 0 | [20] 0

C=CC(=O)N1CCC(Oc2cc3c(Nc4ccc(Cl)c(Cl)c4F)ncnc3cc2OC)CC1 [Poziotinib] (2.5 µM)
inactive: [1] 0 | [2] 0 | [3] 0 | [4] 0 | [5] 0 | [6] 0 | [7] 0 | [8] 0 | [9] 0 | [10] 0 | [11] 0 | [12] 0 | [13] 0 | [14] 0 | [15] 0 | [16] 0 | [17] 0 | [18] 0 | [19] 0 | [20] 0
